Laboratory results: patent publication US20260266848A1, “COMPOSITIONS AND METHODS FOR DIAGNOSING AND TREATING DYSTONIA” (Duke University, priority 2023, published 2026)

System: DYT1 patient plasma
Test: Whole plasma metabolomics (Biocrates MxP Quant 500 Kit), DYT1 vs Healthy Controls
Settings: DYT1-Dystonia vs Healthy Control

-LogP: 1.856
Compound: N[C@@H](Cc1ccc(O)cc1)C(=O)O [Tyr_Aminoacids]
